The results in this text go back to the supplement of paper PMC4604168 (melanoma cell lines).

The list shows a part of the results. Many values rest on one well or one pass, so single values are uncertain.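 The apoptosis fraction was the count of cleaved-PARP antibody-stained nuclei relative to all DNA-stained nuclei, imaged in 1,536-well plates. Screening doses were set so most cells survived, and baseline and induced cleaved-PARP levels vary greatly across cell lines.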

Some test systems named below: WM115; WM1716; WM1745; WM3526; WM3619; WM451Lu.
Assay in all cases: cleaved PARP positive nuclei fraction relative to DMSO control; melanoma cells; higher = more apoptosis
What all share (settings): library dose: low library concentration; 72 h

On to `CS(=O)(=O)c1ccc(C(=O)Nc2ccc(Cl)c(-c3ccccn3)c2)c(Cl)c1` [vismodegib] + CCc1ccc(CCOc2ccc(CC3SC(=O)NC3=O)cc2)nc1 [pioglitazone] (first compound 1 µM, partner dose 2 µM), for which the “cleaved PARP positive nuclei fraction” value in the assay on WM115 was found to be 25.5%; in the assay with WM1716, 32.7%; in the assay with WM1745, 92.5%; in the assay on WM3526, 84.4%; in the assay with WM3619, 93.9%; in the assay with WM451Lu, 63.9%.
Consider `CC1(C)CCC(c2ccc(Cl)cc2)=C(CN2CCN(c3ccc(C(=O)NS(=O)(=O)c4ccc(N[C@H](CCN5CCOCC5)CSc5ccccc5)c(S(=O)(=O)C(F)(F)F)c4)cc3)CC2)C1` + C=CCNC1=C2C[C@@H](C)C[C@H](OC)[C@H](O)[C@@H](C)/C=C(\C)[C@H](OC(N)=O)[C@@H](OC)/C=C\C=C(/C)C(=O)NC(=CC1=O)C2=O [Tanespimycin] (first compound 0.4 µM, partner dose 0.002 µM), for which the “cleaved PARP positive nuclei fraction” value was determined as 390% with WM115; 140% in the assay on WM1716; 846% in the assay on WM1745; 59.6% with WM3526; 320% in the assay with WM3619; 109% with WM451Lu.
Regarding `CCN(CC)CCNC(=O)c1c(C)[nH]c(/C=C2\C(=O)Nc3ccc(F)cc32)c1C` [sunitinib] + CC(C)CCN1c2nc(Nc3cc(F)c(O)c(F)c3)ncc2N(C)C(=O)C1C [BID1870] (first compound 0.4 µM, partner dose 0.2 µM), the “cleaved PARP positive nuclei fraction” value in the assay on WM115 was 151%; in the assay with WM1716, 115%; with WM1745, 93.1%; with WM3526, 103%; in the assay with WM3619, 211%; in the assay on WM451Lu it was 60.3%.
For `Cn1cnc2c(F)c(Nc3ccc(Br)cc3Cl)c(C(=O)NOCCO)cc21` [selumetinib] + CC(=O)O[C@@]12CO[C@@H]1C[C@H](O)[C@@]1(C)C(=O)[C@H](O)C3=C(C)[C@@H](OC(=O)[C@H](O)[C@@H](NC(=O)OC(C)(C)C)c4ccccc4)C[C@@](O)([C@@H](OC(=O)c4ccccc4)[C@H]21)C3(C)C [Docetaxel] (first compound 0.015 µM, partner dose 0.0001 µM), the “cleaved PARP positive nuclei fraction” value in the assay on WM115 was determined as 179%; with WM1716 it was 66.4%; with WM1745, 28.5%; with WM3526, 817%; in the assay with WM3619, 170%; in the assay with WM451Lu, 258%.
With `CCCCCCCCc1ccc(CCC(N)(CO)CO)cc1` [fingolimod] + OCc1c[nH]c2ccccc12 [Indole-3-carbinol] (first compound 2 µM, partner dose 0.8 µM), the “cleaved PARP positive nuclei fraction” value was 112% in the assay on WM115; 86% in the assay on WM1716; 151% in the assay on WM1745; 105% in the assay with WM3526; 186% with WM3619; 183% in the assay on WM451Lu.
In the case of `Cn1cnc2c(F)c(Nc3ccc(Br)cc3Cl)c(C(=O)NOCCO)cc21` [selumetinib] + CNC(=O)c1cc(Oc2ccc(NC(=O)Nc3ccc(Cl)c(C(F)(F)F)c3)cc2)ccn1 [sorafenib] (first compound 0.015 µM, partner dose 0.4 µM), the “cleaved PARP positive nuclei fraction” value was found to be 141% with WM115; 107% with WM1716; 92.9% with WM1745; 25.3% with WM3526; 96.9% in the assay on WM3619; 46.5% with WM451Lu.
For `Cn1sc(=O)n(Cc2ccccc2)c1=O` + Cn1cc(/C=C2\C(=O)Nc3cccnc32)c2ccccc21 [GW441756] (first compound 0.4 µM, partner dose 0.4 µM), the “cleaved PARP positive nuclei fraction” value came out at 58.2% with WM115; 243% in the assay on WM1716; 75.5% in the assay on WM1745; 435% with WM3526; 100% in the assay with WM3619; 28% in the assay with WM451Lu.
Consider `NC1(c2ccc(-c3nc4ccn5c(=O)[nH]nc5c4cc3-c3ccccc3)cc2)CCC1` + C[C@@H](Oc1cc(-c2cnn(C3CCNCC3)c2)cnc1N)c1c(Cl)ccc(F)c1Cl [Crizotinib] (first compound 0.4 µM, partner dose 0.2 µM), for which the “cleaved PARP positive nuclei fraction” value in the assay with WM115 came to 162%; in the assay on WM1716, 155%; with WM1745 it was 111%; in the assay on WM3526 it was 142%; with WM3619, 91.2%; in the assay on WM451Lu, 97.3%.
In the case of `C[C@@H](N)c1ccc(C(=O)Nc2ccnc3[nH]ccc23)cc1` + CCCCCCCCCCCC1=C(O)C(=O)C=C(O)C1=O [Embelin] (first compound 0.4 µM, partner dose 1.2 µM), the “cleaved PARP positive nuclei fraction” value in the assay with WM115 stood at 94%; in the assay with WM1716, 109%; in the assay on WM1745, 113%; with WM3526 it was 77.8%; with WM3619, 108%; in the assay on WM451Lu it was 77.7%.
For `C[C@]1(O)C[C@@H](c2nc(-c3ccc4ccc(-c5ccccc5)nc4c3)c3c(N)nccn32)C1` + C=CCn1c(=O)c2cnc(Nc3ccc(N4CCN(C)CC4)cc3)nc2n1-c1cccc(C(C)(C)O)n1 [MK1775] (first compound 0.4 µM, partner dose 0.02 µM), the “cleaved PARP positive nuclei fraction” value in the assay with WM115 was 156%; with WM1716, 53.1%; with WM1745, 199%; in the assay on WM3526 it was 80.3%; in the assay on WM3619, 108%; in the assay with WM451Lu, 97.4%.
Regarding `CCN(CC)CCNC(=O)c1c(C)[nH]c(/C=C2\C(=O)Nc3ccc(F)cc32)c1C` [sunitinib] + CCN(CC)CCCCNc1ncc2cc(-c3cc(OC)cc(OC)c3)c(NC(=O)NC(C)(C)C)nc2n1 [PD173074] (first compound 0.4 µM, partner dose 0.1 µM), the “cleaved PARP positive nuclei fraction” value turned out to be 224% in the assay with WM115; 80.6% in the assay on WM1716; 110% in the assay with WM1745; 107% in the assay with WM3526; 94.7% in the assay with WM3619; 158% in the assay on WM451Lu.
Regarding `Cn1cnc2c(F)c(Nc3ccc(Br)cc3Cl)c(C(=O)NOCCO)cc21` [selumetinib] + COc1cc2ncnc(Nc3ccc(Oc4ccccc4)cc3)c2cc1OC [SrcI1] (first compound 0.015 µM, partner dose 2 µM), the “cleaved PARP positive nuclei fraction” value with WM115 was determined as 61.4%; with WM1716, 90.9%; in the assay on WM1745, 99.2%; with WM3526, 202%; in the assay with WM3619, 100%; in the assay with WM451Lu it was 104%.
As to `CCCCCCCCc1ccc(CCC(N)(CO)CO)cc1` [fingolimod] + CC(C)CCN1c2nc(Nc3cc(F)c(O)c(F)c3)ncc2N(C)C(=O)C1C [BID1870] (first compound 2 µM, partner dose 0.2 µM), the “cleaved PARP positive nuclei fraction” value was 51.6% in the assay on WM115; 167% with WM1716; 114% in the assay with WM1745; 345% in the assay on WM3526; 110% in the assay with WM3619; 49.4% in the assay with WM451Lu.
For the compound `CCCCCCCCc1ccc(CCC(N)(CO)CO)cc1` [fingolimod] + CN(NC(=O)CC(=O)NN(C)C(=S)c1ccccc1)C(=S)c1ccccc1 [STA4783] (first compound 2 µM, partner dose 0.006 µM), the “cleaved PARP positive nuclei fraction” value came to 334% with WM115; 88.5% in the assay with WM1716; 137% with WM1745; 77.3% in the assay on WM3526; 115% in the assay with WM3619; 158% in the assay with WM451Lu.
As for `Cn1sc(=O)n(Cc2ccccc2)c1=O` + COc1ccc(C2=N[C@@H](c3ccc(Cl)cc3)[C@@H](c3ccc(Cl)cc3)N2C(=O)N2CCNC(=O)C2)c(OC(C)C)c1 [Nutlin-3] (first compound 0.4 µM, partner dose 0.1 µM), the “cleaved PARP positive nuclei fraction” value was 108% in the assay on WM115; 46.2% in the assay on WM1716; 117% in the assay with WM1745; 165% in the assay on WM3526; 93.6% in the assay on WM3619; 34.2% with WM451Lu.
As to `Cn1sc(=O)n(Cc2ccccc2)c1=O` + NCC(=O)Nc1ccc(-n2nc(C(F)(F)F)cc2-c2ccc3c(ccc4ccccc43)c2)cc1 [OSU03012] (first compound 0.4 µM, partner dose 1 µM), the “cleaved PARP positive nuclei fraction” value in the assay on WM115 turned out to be 650%; with WM1716, 98.7%; with WM1745, 95.9%; in the assay on WM3526, 432%; in the assay with WM3619, 91.5%; with WM451Lu, 140%.
`CCCCCCCCc1ccc(CCC(N)(CO)CO)cc1` [fingolimod] + Cc1nc(Nc2ncc(C(=O)Nc3c(C)cccc3Cl)s2)cc(N2CCN(CCO)CC2)n1 [dasatanib] (first compound 2 µM, partner dose 0.004 µM): the “cleaved PARP positive nuclei fraction” value in the assay with WM115 came out at 388%; with WM1716 it was 153%; in the assay on WM1745, 124%; in the assay on WM3526, 109%; in the assay on WM3619, 105%; in the assay with WM451Lu, 212%.
As for `COc1ccc(C2=N[C@@H](c3ccc(Cl)cc3)[C@@H](c3ccc(Cl)cc3)N2C(=O)N2CCNC(=O)C2)c(OC(C)C)c1` [Nutlin-3] + Cn1c(Nc2ccc(C(F)(F)F)cc2)nc2cc(Oc3ccnc(-c4ncc(C(F)(F)F)[nH]4)c3)ccc21 [CHIR265] (first compound 0.1 µM, partner dose 0.08 µM), the “cleaved PARP positive nuclei fraction” value with WM115 is 361%; in the assay on WM1716, 82.8%; with WM1745 it was 130%; in the assay with WM3526, 57.1%; in the assay on WM3619, 132%; in the assay with WM451Lu, 32.1%.
`CCCCCCCCc1ccc(CCC(N)(CO)CO)cc1` [fingolimod] + Cc1ccc(NC(=O)c2cccc(N(C)C)c2)cc1NC(=O)c1ccc(O)cc1 [ZM336372] (first compound 2 µM, partner dose 2 µM): the “cleaved PARP positive nuclei fraction” value is 139% in the assay with WM115; 65.9% with WM1716; 125% in the assay on WM1745; 68% with WM3526; 98.5% with WM3619; 370% in the assay on WM451Lu.
With `C[C@@H](N)c1ccc(C(=O)Nc2ccnc3[nH]ccc23)cc1` + C[C@]1(c2nc3c(C(N)=O)cccc3[nH]2)CCCN1 [Veliparib] (first compound 0.4 µM, partner dose 1.4 µM), the “cleaved PARP positive nuclei fraction” value with WM115 stood at 88.8%; with WM1716 it was 114%; with WM1745 it was 110%; with WM3526, 48.7%; in the assay on WM3619, 197%; in the assay with WM451Lu it was 322%.
Consider `CCN(CC)CCNC(=O)c1c(C)[nH]c(/C=C2\C(=O)Nc3ccc(F)cc32)c1C` [sunitinib] + C[C@@H]1CCN(C(=O)CC#N)C[C@@H]1N(C)c1ncnc2[nH]ccc12 [CP690550] (first compound 0.4 µM, partner dose 1 µM), for which the “cleaved PARP positive nuclei fraction” value in the assay on WM115 was 119%; in the assay on WM1716, 129%; in the assay on WM1745 it was 99.5%; in the assay on WM3526 it was 110%; in the assay on WM3619, 83.6%; with WM451Lu, 43.3%.
On to `C[C@@H](N)c1ccc(C(=O)Nc2ccnc3[nH]ccc23)cc1` + O=C(O)c1ccc(-c2c[nH]c3ncc(-c4ccccc4)cc23)cc1C1CCCC1 [GSK650394] (first compound 0.4 µM, partner dose 0.16 µM), for which the “cleaved PARP positive nuclei fraction” value in the assay on WM115 turned out to be 146%; in the assay on WM1716, 310%; in the assay with WM1745, 102%; in the assay with WM3526, 57.6%; in the assay on WM3619, 95.7%; in the assay on WM451Lu, 51.3%.
As for `C[C@@H](N)c1ccc(C(=O)Nc2ccnc3[nH]ccc23)cc1` + CCN(CC)CCCCNc1ncc2cc(-c3cc(OC)cc(OC)c3)c(NC(=O)NC(C)(C)C)nc2n1 [PD173074] (first compound 0.4 µM, partner dose 0.1 µM), the “cleaved PARP positive nuclei fraction” value in the assay with WM115 came to 32.1%; with WM1716, 200%; in the assay with WM1745, 100%; in the assay with WM3526, 61.8%; with WM3619 it was 89.8%; with WM451Lu, 159%.
